Drug screen on melanoma cell lines: cell count

Data from the primary screen of doi:10.1371/journal.pone.0140310, rounded.

Drugs:
stibogluconate (2 µM): O=C(O)[C@@H]1[O][Sb](=[O])([O][Sb]2(=[O])[O][C@H]([C@H](O)CO)[C@H](O)[C@H](C(=O)O)[O]2)[O][C@H]([C@H](O)CO)[C@@H]1O (stereo partly drawn)
OSI-906 (0.4 µM): C[C@]1(O)C[C@@H](c2nc(-c3ccc4ccc(-c5ccccc5)nc4c3)c3c(N)nccn32)C1
MK-2206 (0.4 µM): NC1(c2ccc(-c3nc4ccn5c(=O)[nH]nc5c4cc3-c3ccccc3)cc2)CCC1
CX-4945 (0.4 µM): O=C(O)c1ccc2c(c1)nc(Nc1cccc(Cl)c1)c1ccncc12
darinaparsin (0.4 µM): C[As](C)SC[C@H](NC(=O)CC[C@H](N)C(=O)O)C(=O)NCC(=O)O
IMD-0354 (0.016 µM): O=C(Nc1cc(C(F)(F)F)cc(C(F)(F)F)c1)c1cc(Cl)ccc1O
etoposide (0.02 µM): COc1cc([C@@H]2c3cc4c(cc3[C@@H](O[C@@H]3O[C@@H]5CO[C@@H](C)O[C@H]5[C@H](O)[C@H]3O)[C@H]3COC(=O)[C@H]23)OCO4)cc(OC)c1O
CHIR-265 (0.08 µM): Cn1c(Nc2ccc(C(F)(F)F)cc2)nc2cc(Oc3ccnc(-c4ncc(C(F)(F)F)[nH]4)c3)ccc21
GW0742 (2 µM): Cc1cc(SCc2sc(-c3ccc(C(F)(F)F)c(F)c3)nc2C)ccc1OCC(=O)O
dasatinib (0.004 µM): Cc1nc(Nc2ncc(C(=O)Nc3c(C)cccc3Cl)s2)cc(N2CCN(CCO)CC2)n1
fludarabine (0.2 µM): Nc1nc(F)nc2c1ncn2[C@@H]1O[C@H](CO)[C@@H](O)[C@@H]1O
vatalanib (2 µM): Clc1ccc(Nc2nnc(Cc3ccncc3)c3ccccc23)cc1
dovitinib (0.1 µM): CN1CCN(c2ccc3nc(-c4c(N)c5c(F)cccc5[nH]c4=O)[nH]c3c2)CC1
BI-78D3 (0.2 µM): O=c1[nH]nc(Sc2ncc([N+](=O)[O-])s2)n1-c1ccc2c(c1)OCCO2
lestaurtinib (0.004 µM): C[C@]12O[C@H](C[C@]1(O)CO)n1c3ccccc3c3c4c(c5c6ccccc6n2c5c31)CNC4=O
selumetinib (0.015 µM): Cn1cnc2c(F)c(Nc3ccc(Br)cc3Cl)c(C(=O)NOCCO)cc21
GW9662 (2 µM): O=C(Nc1ccccc1)c1cc([N+](=O)[O-])ccc1Cl
sunitinib (0.4 µM): CCN(CC)CCNC(=O)c1c(C)[nH]c(/C=C2\C(=O)Nc3ccc(F)cc32)c1C
enzastaurin (0.8 µM): Cn1cc(C2=C(c3cn(C4CCN(Cc5ccccn5)CC4)c4ccccc34)C(=O)NC2=O)c2ccccc21
tozasertib (0.006 µM): Cc1cc(Nc2cc(N3CCN(C)CC3)nc(Sc3ccc(NC(=O)C4CC4)cc3)n2)n[nH]1

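Human melanoma cell lines in 1,536-well plates were treated with a pair of drugs for 72 h, then fixed, stained and imaged. The read-out is cell count (nuclei) in % of the DMSO control; lower values mean stronger growth inhibition or killing. Every drug was used at one fixed concentration, the lower of two screened (a fifth of the higher). No replicate spread is given; individual values may be noisy.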 An unselected part of the screen is shown.

* dovitinib + darinaparsin : COLO 792: 84.4
* sunitinib + stibogluconate : COLO 792: 95.0
* vatalanib + sunitinib : COLO 792: 81.4
* etoposide + CHIR-265 : COLO 792: 36.9
* GW0742 + GW9662 : COLO 792: 109
* GW0742 + CHIR-265 : COLO 792: 32.8
* lestaurtinib + tozasertib : COLO 792: 85.0
* vatalanib + selumetinib : COLO 792: 88.1
* OSI-906 + vatalanib : COLO 792: 81.5
* fludarabine + selumetinib : COLO 792: 93.7
* sunitinib + CX-4945 : COLO 792: 91.8
* sunitinib + CHIR-265 : COLO 792: 49.9
* darinaparsin + selumetinib : COLO 792: 83.6
* tozasertib + enzastaurin : COLO 792: 94.0
* dasatinib + etoposide : COLO 792: 52.3
* darinaparsin + vatalanib : COLO 792: 88.4
* MK-2206 + OSI-906 : COLO 792: 77.0
* darinaparsin + CX-4945 : COLO 792: 85.9
* tozasertib + darinaparsin : COLO 792: 97.0
* etoposide + stibogluconate : COLO 792: 99.4
* sunitinib + darinaparsin : COLO 792: 101
* enzastaurin + IMD-0354 : COLO 792: 121
* BI-78D3 + etoposide : COLO 792: 93.9

Repeated from the top, 2 entries:

{"drugs": "dovitinib + darinaparsin", "COLO 792": 84.4}
{"drugs": "sunitinib + stibogluconate", "COLO 792": 95.0}